The assay deals with L1210 leukemia ip in BDF1 mice, survival T/C. The assay is described as follows: NCI In Vivo Anticancer Drug Screen. Data for tumor model L1210 Leukemia (intraperitoneal) in B6D2F1 (BDF1) mice. The settings on record: T/C endpoint: mean survival time, higher T/C = longer survival.
[1] abbreviates: dose: 400.0 mg/kg/injection, schedule: Q01DX009 (ip), vehicle: saline with Tween-80.
Where [2] appears, read: dose: 400.0 mg/kg/injection, schedule: Q04DX003 (ip), vehicle: saline.
Where [3] appears, read: dose: 400.0 mg/kg/injection, schedule: Q04DX003 (ip), vehicle: saline with Tween-80.
Where [4] appears, read: dose: 400.0 mg/kg/injection, schedule: Q04DX002 (ip), vehicle: Klucel (hydroxypropylcellulose) (HPC).
[5] abbreviates: dose: 100.0 mg/kg/injection, schedule: Q01DX001 (ip), vehicle: saline.
Where [6] appears, read: dose: 100.0 mg/kg/injection, schedule: Q01DX009 (ip), vehicle: saline with Tween-80.
[7] abbreviates: dose: 150.0 mg/kg/injection, schedule: Q01DX001 (ip), vehicle: saline.
The mark [8] stands for this setting: dose: 300.0 mg/kg/injection, schedule: Q01DX001 (ip), vehicle: saline.
Where [9] appears, read: dose: 400.0 mg/kg/injection, schedule: Q01DX001 (ip), vehicle: carboxymethylcellulose (CMC).
[10] abbreviates: dose: 100.0 mg/kg/injection, schedule: Q04DX003 (ip), vehicle: Klucel (hydroxypropylcellulose) (HPC).
Setting [11] is: dose: 200.0 mg/kg/injection, schedule: Q04DX003 (ip), vehicle: Klucel (hydroxypropylcellulose) (HPC).
Setting [12] is: dose: 400.0 mg/kg/injection, schedule: Q04DX003 (ip), vehicle: Klucel (hydroxypropylcellulose) (HPC).
Setting [13] is: dose: 400.0 mg/kg/injection, schedule: Q01DX001 (ip), vehicle: saline.

The list shows only some results of the screen, not a fair sample: it is rich in T/C values a quarter to a half above the control, in often repeated tests (any T/C) and in doses without a T/C. Further doses and runs are listed elsewhere. T/C: endpoint of the treated group in % of that of the vehicle group. Some entries give survivors of the animals treated and no T/C: the source files T/C as zero there, which appears to mark a toxic dose or a test without result, not a measured value. Some survivor counts are full or nearly so, which does not show that the dose was tolerated: the source hardly ever lists a survival T/C far under the control, and the zero likely stands for such cases as well. Survivors were counted at the toxicity check, usually on the fifth day, unless a day is given; later deaths do not show. Schedules are NCI's codes, read here as Q, the interval in days (D) or hours (H), X, the number of doses. Some schedules carry Z or #; the key to these is not given. Where survival is the endpoint, the PubChem record calls one and a half times the control and up active, and a quarter to a half above the control has no call in these data; cut-offs in other NCI protocols can differ.

Regarding `Clc1nc2nc3n(c2nc1Cl)CCC3(Br)Br`, the survivor count runs as follows: (dose: 25.0 mg/kg/injection, schedule: Q01DX009 (ip), vehicle: other) 5 of 6; (dose: 50.0 mg/kg/injection, schedule: Q01DX009 (ip), vehicle: other) 6 of 6; (dose: 100.0 mg/kg/injection, schedule: Q01DX009 (ip), vehicle: other) 4 of 6; (dose: 200.0 mg/kg/injection, schedule: Q01DX009 (ip), vehicle: other) 6 of 6; (dose: 400.0 mg/kg/injection, schedule: Q01DX009 (ip), vehicle: other) 2 of 6.

Turning to `NC(N)=NC(N)=Nc1ccc(S(=O)(=O)c2ccc(N=C(N)N=C(N)N)cc2)cc1`, the survivor count under setting [1] is 5 of 6.

For `O=C(Nc1ccccc1)C(Br)c1ccccc1` (stereo not given), the survivor count under setting [2] is recorded as 3 of 6.

For the compound `O=C(Nc1ccccc1-c1ccc([N+](=O)[O-])cc1)c1cc(Cl)cc(Cl)c1`, under setting [3], the survivor count is on record as 6 of 6.

For `O=C1OI(Cl)c2ccccc21`, under setting [4], the survivor count is on record as 2 of 3.

On to `C=CCNCC1OC(OC)C2OC(C)(C)OC12` (stereo not given), for which, under setting [2], the survivor count was 0 of 6.

In the case of `C/C(=N/NC(N)=S)c1ccco1`, under setting [5], the survivor count is 4 of 4.

Turning to `CC(=O)Oc1ccc(Cl)cc1Cl`, the survivor count under setting [3] is 2 of 6.

Regarding `CNNC(=O)CCc1ccccc1`, the survivor count is, setting by setting: (dose: 75.0 mg/kg/injection, schedule: Q01DX009 (ip), vehicle: saline) 1 of 6; (dose: 150.0 mg/kg/injection, schedule: Q01DX009 (ip), vehicle: saline) 0 of 6; (dose: 300.0 mg/kg/injection, schedule: Q01DX009 (ip), vehicle: saline) 0 of 6.

Turning to `S=C=Nc1ccc(Cl)c(Cl)c1`, the survivor count runs as follows: under setting [6], 0 of 6; (dose: 200.0 mg/kg/injection, schedule: Q01DX009 (ip), vehicle: saline with Tween-80) 0 of 6; under setting [1], 0 of 6.

For `CN(CCc1cnc2nc(N)nc(N)c2n1)c1ccc(C(=O)O)cc1`, the survivor count is, setting by setting: under setting [7], 1 of 6; under setting [8], 1 of 6.

As to `CCCN(CCC)C(=O)CCN1CC1`, the survivor count by setting is: (dose: 50.0 mg/kg/injection, schedule: Q01DX001 (ip), vehicle: carboxymethylcellulose (CMC)) 2 of 4; (dose: 80.0 mg/kg/injection, schedule: Q01DX001 (ip), vehicle: carboxymethylcellulose (CMC)) 0 of 4; (dose: 100.0 mg/kg/injection, schedule: Q01DX001 (ip), vehicle: carboxymethylcellulose (CMC)) 1 of 4; (dose: 200.0 mg/kg/injection, schedule: Q01DX001 (ip), vehicle: carboxymethylcellulose (CMC)) 0 of 4; under setting [9], 0 of 4.

As for `Fc1cc(F)c2ncccc2c1`, the T/C (dose: 75.0 mg/kg/injection, schedule: Q01DX001 (ip), vehicle: saline) is 126 % of control. The survivor count is 0 of 6 under setting [7]; 1 of 6 (dose: 300.0 mg/kg/injection, schedule: Q01DX001 (ip), vehicle: carboxymethylcellulose (CMC)); 0 of 6 under setting [8].

Consider `O=[N+]([O-])c1cccc(C[n+]2ccccc2C2OCCO2)c1`, for which the survivor count is listed as 3 of 6 (dose: 55.0 mg/kg/injection, schedule: Q01DX009 (ip), vehicle: saline) and 3 of 6 (dose: 80.0 mg/kg/injection, schedule: Q01DX009 (ip), vehicle: saline).

`Nc1ncc(C[P+](c2ccccc2)(c2ccccc2)c2ccccc2)c(N)n1`: the survivor count under setting [10] is recorded as 0 of 3, the survivor count under setting [11] was 0 of 3 and the survivor count under setting [12] is given as 0 of 3.

For the compound `NC(=O)c1cccs1`, the survivor count is reported as 1 of 4 (dose: 80.0 mg/kg/injection, schedule: Q01DX001 (ip), vehicle: saline); 2 of 4 under setting [5]; 0 of 4 (dose: 200.0 mg/kg/injection, schedule: Q01DX001 (ip), vehicle: saline); 0 of 4 under setting [13].

Regarding `COc1c(C(C)(C)C)cc(/C=C(\NC(=O)c2ccccc2)C(=O)O)cc1C(C)(C)C`, where the note is “dose: 400.0 mg/kg/injection, schedule: Q01DX001 (ip), vehicle: Klucel (hydroxypropylcellulose) (HPC)”, the survivor count is 0 of 3.

For `N#Cc1cc(Cl)cn1O`, the survivor count (dose: 400.0 mg/kg/injection, schedule: Q04DX002 (ip), vehicle: other) was 1 of 3.

For the compound `O=C(O)C(Nc1cccc2ccccc12)c1ccccc1` (stereo not given), the survivor count under setting [4] is listed as 1 of 3.

In the case of `CN(C)Cc1cc(C(C)(C)C)ccc1O`, the survivor count under setting [2] is listed as 2 of 6.

As to `Brc1ccc2c(c1)-c1ccccc1C1=NCCN12`, the survivor count by setting is: (dose: 20.0 mg/kg/injection, schedule: Q01DX009 (ip), vehicle: Klucel (hydroxypropylcellulose) (HPC)) 3 of 6; (dose: 40.0 mg/kg/injection, schedule: Q04DX003 (ip), vehicle: Klucel (hydroxypropylcellulose) (HPC)) 1 of 6; (dose: 80.0 mg/kg/injection, schedule: Q04DX003 (ip), vehicle: Klucel (hydroxypropylcellulose) (HPC)) 0 of 6; under setting [10], 0 of 6; under setting [11], 0 of 6; under setting [12], 0 of 6.

As to `O=C1/C(=N/O)CCc2ccccc21`, the survivor count by setting is: (dose: 200.0 mg/kg/injection, schedule: Q01DX009 (ip), vehicle: saline) 5 of 6; under setting [9], 2 of 4.

As to `O=C(Nc1coc2ccc(Cl)cc12)C1CC1`, the survivor count under setting [1] was 2 of 6.

As for `NC(CSS(=O)(=O)O)=NCCSc1ccccc1`, the survivor count reads like this: (dose: 100.0 mg/kg/injection, schedule: Q04DX002 (ip), vehicle: Klucel (hydroxypropylcellulose) (HPC)) 0 of 3; (dose: 200.0 mg/kg/injection, schedule: Q04DX002 (ip), vehicle: Klucel (hydroxypropylcellulose) (HPC)) 0 of 3; under setting [4], 0 of 3.

Consider `COC(OC)c1cc(=O)n(C)c(=O)[nH]1`, for which the survivor count under setting [6] is reported as 6 of 6.

`NC(N)=N/N=C(/CC(=O)c1ccccc1)c1ccccc1`: the survivor count is 1 of 6 (dose: 120.0 mg/kg/injection, schedule: Q01DX Z (ip), vehicle: carboxymethylcellulose (CMC)) and 1 of 6 (dose: 960.0 mg/kg/injection, schedule: Q01DX Z (oral), vehicle: carboxymethylcellulose (CMC)).

Turning to `O=C(CC(=O)C(F)(F)C(F)(F)C(F)(F)F)c1csc2ccccc12`, the survivor count (dose: 64.0 mg/kg/injection, schedule: Q01DX015 (ip), vehicle: saline) is 6 of 6; the survivor count (dose: 75.0 mg/kg/injection, schedule: Q01DX009 (ip), vehicle: saline with Tween-80) was 2 of 6; the survivor count (dose: 100.0 mg/kg/injection, schedule: Q04DX003 (ip), vehicle: acetone) is given as 1 of 6; the survivor count (dose: 115.0 mg/kg/injection, schedule: Q01DX009 (ip), vehicle: saline with Tween-80) is 2 of 6; the survivor count (dose: 170.0 mg/kg/injection, schedule: Q01DX009 (ip), vehicle: saline with Tween-80) is reported as 0 of 6; the survivor count (dose: 200.0 mg/kg/injection, schedule: Q04DX003 (ip), vehicle: acetone) was 1 of 6. For the same compound, the survivor count under setting [13] is 2 of 6.

Take `CCN(CC)C(=O)CSC#N`: the survivor count (dose: 25.0 mg/kg/injection, schedule: Q04DX002 (ip), vehicle: other) is listed as 1 of 3.

The record behind these values is PubChem BioAssay AID248 (DTP/NCI, 2004).
